# Reference: PubChem BioAssay AID504793 (Drosophila RNAi Screening Center, 2011)
# Aim: 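Knock-downs allowing continued mitosis even though DNA is damaged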 (primary screen)
# Cells: Drosophila S2R+ cells
# Reagent: long dsRNA against Drosophila genes, about 0.25 µg dsRNA per well
# Time to read-out: 4 days of dsRNA, then 4 hours of drug before read-out
# Treatment: doxorubicin 0.5 µM for 4 hours to cause double-strand breaks, in cells also given a low, harmless dose of dsRNA against nbs to sensitise the assay
# Measured: 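Per-well count of mitotic cells stained for phospho-histone H3 after doxorubicin exposure, used as mitotic index; counts are raw and not normalised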
# Reading the numbers: mitotic cells: higher = more cells in mitosis, weaker G2 arrest
# Active means: 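a call needs confirmation in secondary tests, with other dsRNAs and a check of mitotic timing without damage, not just a high primary count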
# Meaning of the calls: active = confirmed in follow-up tests; inactive = not confirmed
# In all, the deposit lists about 23,000 reagents; this is an unselected part of those with a known target gene and a result. In the full data, 62 (0.27%) got an active call. 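Calls come from follow-up tests whose scores are not deposited, so confirmed genes may have low counts here; counts are not normalised per plate.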 Raw values are not corrected between plates. A plus sign joins genes that one reagent is predicted to hit.
Gene,amplicon,"mitotic cells, replicate 1","mitotic cells, replicate 2",Call
CG17839,DRSC10290,3,,inactive
CG17839,DRSC10291,8,,inactive
CG18538,DRSC06765,10,,inactive
CG7332,DRSC20038,10,,inactive
CG7332,DRSC28841,2,,inactive
CG14340,DRSC00370,9,,inactive
Or71a (Odorant receptor 71a),DRSC11244,5,,inactive
ND-19 (NADH dehydrogenase (ubiquinone) 19 kDa subunit),DRSC04404,2,,inactive
ND-19 (NADH dehydrogenase (ubiquinone) 19 kDa subunit),DRSC27604,4,,inactive
CG17111,DRSC15174,11,,inactive
CG17111,DRSC26175,7,,inactive
CG13255,DRSC11702,12,,inactive
robl37BC,DRSC02472,3,,inactive
Sptz (Spastizin),DRSC15758,8,,inactive
Sptz (Spastizin),DRSC27382,7,,inactive
CG43345,DRSC03164,4,,inactive
CG7800,DRSC16315,4,,inactive
CG7800,DRSC27419,6,,inactive
CG3609,DRSC00620,5,,inactive
CG3609,DRSC29005,3,,inactive
pim (pimples),DRSC03591,13,,inactive
CSN1b (COP9 signalosome subunit 1b),DRSC11108,5,,active
Lhr (Lethal hybrid rescue),DRSC06759,8,,inactive
Lhr (Lethal hybrid rescue),DRSC26915,10,,inactive
Ir56a (Ionotropic receptor 56a),DRSC05776,5,,inactive
Ir56a (Ionotropic receptor 56a),DRSC28590,5,,inactive
Ste:CG33238 + Ste:CG33241 + Ste:CG33236 + 11 more,DRSC19004,72,,inactive
Ste:CG33238 + Ste:CG33241 + Ste:CG33236 + 11 more,DRSC21260,5,,inactive
GNBP1 (Gram-negative bacteria binding protein 1),DRSC11169,4,,inactive
GNBP1 (Gram-negative bacteria binding protein 1),DRSC21836,14,,inactive
CG6345,DRSC16024,5,,inactive
Rab14,DRSC03403,6,,inactive
Rab14,DRSC28941,5,,inactive
CG13838,DRSC14688,9,6,inactive
CG13838,DRSC29055,3,,inactive
arr (arrow),DRSC07451,4,,inactive
arr (arrow),DRSC27035,4,,inactive
CG14564,DRSC11725,7,,inactive
CG14564,DRSC22388,9,,inactive
CG2162,DRSC08557,5,,inactive
CG2162,DRSC25030,4,,inactive
CG3604,DRSC00618,6,,inactive
MP1 (Melanization Protease 1),DRSC12124,13,15,inactive
MP1 (Melanization Protease 1),DRSC28577,3,,inactive
Jon65Aiii (Jonah 65Aiii),DRSC10649,9,,inactive
Jon65Aiii (Jonah 65Aiii),DRSC25428,11,,inactive
CG9737,DRSC16550,8,,inactive
opm (opossum),DRSC20141,2,,inactive
opm (opossum),DRSC22135,5,,inactive
opm (opossum),DRSC29575,,,inactive
CG11379,DRSC18629,4,,inactive
CG15408,DRSC00423,3,,inactive
Sry-alpha (Serendipity alpha),DRSC16867,22,8,inactive
Sry-alpha (Serendipity alpha),DRSC29189,6,,inactive
Sk1 (Sphingosine kinase 1),DRSC19774,12,,inactive
Pect (Phosphoethanolamine cytidylyltransferase),DRSC02867,5,,inactive
Pect (Phosphoethanolamine cytidylyltransferase),DRSC02868,2,,inactive
kek2 (kekkon 2),DRSC03552,8,,inactive
kek2 (kekkon 2),DRSC26189,3,,inactive
Syt4 (Synaptotagmin 4),DRSC12606,1,,inactive
CG3557,DRSC00614,4,,inactive
tws (twins),DRSC12767,14,,inactive
tws (twins),DRSC17092,54,,inactive
tws (twins),DRSC27776,27,,inactive
Jon99Fii (Jonah 99Fii),DRSC15430,10,,inactive
CG15048 (retired record),DRSC19624,8,,inactive
RhoGEF3 (retired record),DRSC08266,13,,inactive
RhoGEF3 (retired record),DRSC08353,7,,inactive
CG9107,DRSC03138,7,,inactive
CG6083,DRSC10580,6,,inactive
CG6083,DRSC24586,11,,inactive
Camta (Calmodulin-binding transcription activator),DRSC07272,3,,inactive
Camta (Calmodulin-binding transcription activator),DRSC23081,17,,inactive
Camta (Calmodulin-binding transcription activator),DRSC23156,18,,inactive
Camta (Calmodulin-binding transcription activator),DRSC26757,6,,inactive
Camta (Calmodulin-binding transcription activator),DRSC27929,2,,inactive
ctrip (circadian trip),DRSC12242,5,,inactive
ctrip (circadian trip),DRSC12287,2,,inactive
ctrip (circadian trip),DRSC22449,26,,inactive
ctrip (circadian trip),DRSC23512,1,,inactive
ctrip (circadian trip),DRSC27589,5,,inactive
apolpp (apolipophorin),DRSC17216,5,,inactive
RagA-B (Ras-related GTP binding A/B),DRSC14450,8,,inactive
CG6785,DRSC02993,3,,inactive
CG6785,DRSC25446,7,,inactive
Ldh (Lactate dehydrogenase),DRSC11198,7,,inactive
gdrd (goddard),DRSC10020,4,,inactive
Ptp52F (Protein tyrosine phosphatase 52F),DRSC06717,6,,inactive
CG31900 (retired record),DRSC21835,6,,inactive
CG10341,DRSC02040,13,,inactive
Lim1 (LIM homeobox 1),DRSC17752,6,,inactive
CG13526,DRSC04168,2,,inactive
Scgbeta (Sarcoglycan beta),DRSC15854,12,,inactive
RNaseP:RNA (Ribonuclease P RNA),DRSC22967,9,,inactive
CG3491,DRSC01934,2,,inactive
CG5500,DRSC15820,5,,inactive
CG5500,DRSC29450,9,,inactive
Rep (Rab escort protein),DRSC07526,5,,inactive
tey (teyrha-meyrha),DRSC11042,12,,inactive
tey (teyrha-meyrha),DRSC21709,5,,inactive
tey (teyrha-meyrha),DRSC26114,6,,inactive
CG30269,DRSC04158,3,,inactive
CG30105,DRSC05668,3,,inactive
CG30105,DRSC29034,4,,inactive
Sys1 (Sys1 golgi trafficking protein),DRSC14372,7,,inactive
Ufm1 + mute,DRSC26798,10,,inactive
CG33062,DRSC22195,17,,inactive
CG33062,DRSC27501,4,,inactive
CG15247,DRSC17976,5,,inactive
CG15247,DRSC24221,10,,inactive
